# Screen size: about 210,000 compounds; about 5,900 (2.8%) were called active. Inconclusive results (about 5%) are left out. Calls come from the whole dose curve; as a rule, active = well fitted activation curve with a large enough effect; inconclusive = small, poorly fitted or top-dose-only effect; inactive = no such curve, though single readings can be large or run the other way. The entries are a selection whose mix differs from that of the whole data set. Where no call is shown, the source filed none.
# Assay: qHTS Assay for Enhancers of SMN2 Splice Variant Expression; note: nearly all actives have a fitted effect of over 55% in size; for activity change, positive = activation: % of control where 0% means no effect
# Settings: HEK293 SMN2-luciferase splicing reporter, luminescence, 30-36 h; activity change, positive = activation: at 46.1 µM (top of the series) unless noted
# Procedure, shortened: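 HEK293 cells carry an SMN2 minigene-luciferase reporter in which exon 7 inclusion puts luciferase in frame. Cells were seeded at 2000 cells/well, attached for 10-12 hours, then exposed to compounds for 30-36 hours at 37C before ONE-Glo luminescence.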
# Potency is the fitted concentration of half-maximal effect.
SMILES,Potency,"activity change, positive = activation"
c1ccc(-c2cc(-c3nnc4n3N=C(c3ccc5ccccc5c3)CS4)[nH]n2)cc1,active: 11.2 µM,
Cc1ccccc1NC(=O)c1ccc2snnc2c1,,49.3%
CCCCCCc1nc2ccccc2c(=O)n1NC(=O)c1c(O)c2c(n(CC(C)C)c1=O)CCCC2,,-43.4%
Cc1nc(C)c(C(=O)Nc2ncc([N+](=O)[O-])s2)o1,active: 0.891 µM,
O=[N+]([O-])c1ccc2nc(-c3ccc(OC(F)F)cc3)cn2c1,,84.8%
COc1cccc(/C=N/Nc2ncnc(Cl)c2N)c1O,,-97.8%
O=C(NC(=S)NCc1nc2ccccc2[nH]1)c1ccccc1F,,107%
O=C1CSC(c2ccc(Cl)cc2)N1Nc1nc(N2CCOCC2)nc(N2CCOCC2)n1 (stereo not drawn),,34.4%
COc1ccc2oc(=O)c(C(=O)N3CCN(c4ccccc4C)CC3)cc2c1,active: 14.1 µM,
O=C(Nc1ccc(N2CCCCC2)c(Cl)c1)c1ncn[nH]1,,45.4%
O=C(c1ccco1)N1CCN(S(=O)(=O)c2ccc(C3CCCCC3)cc2)CC1,,inactive: -74.4%
CCCCSc1nc(NCc2ccco2)c2c3c(sc2n1)COC(C)(C)C3,,-43%
CCC(C)N1C(=O)S/C(=C/c2ccc(N3CCOCC3)cc2C)C1=O (stereo not drawn),,inactive: -16.4%
COc1cccc(/C=N/NC(=O)c2[nH]c(C)c(C(=O)N/N=C/c3cccc(OC)c3O)c2C)c1O,,-52.4%
CS(=O)(=O)NCCSc1nnnn1-c1ccccc1,,48.7%
COc1ccccc1-c1nnc2sc(-c3cnccn3)nn12,,59.4%
CCC(=O)Nc1cccc(C(=O)/C=C/c2ccc(F)cc2)c1,,inactive: -62.1%
Cc1ccc(C)n1-c1ccc(C(=O)Nc2ccccc2)cc1,active: 12.6 µM,
COC(=O)Nc1ncc(CN2C(=O)c3ccccc3C2=O)s1,,36.2%
COc1cc(OC)cc(C(=O)N=c2sc3ccccc3n2C)c1,active: 10 µM,
O=C(CSc1nc2ccccc2[nH]1)c1ccc(Cl)s1,,43.6%
COc1ccc(C(=O)NCc2cccnc2)cc1S(=O)(=O)N1CCOCC1,,35.5%
O=c1oc2ccccc2cc1-c1nc2c(s1)CCCC2,active: 1 µM,

# Taken from above.
# Potency with Cc1ccc(C)n1-c1ccc(C(=O)Nc2ccccc2)cc1 is entered as active: 12.6 µM
# activity change, positive = activation with Cc1ccccc1NC(=O)c1ccc2snnc2c1 is entered as 49.3%

# Following part

SMILES,Potency,"activity change, positive = activation"
Cn1cnc([N+](=O)[O-])c1Oc1ccc2ccccc2c1,,-10.8%
Cc1c(NC(=O)c2cc(-c3ccc4c(c3)OCO4)on2)c(=O)n(-c2ccccc2)n1C,,44.4%
CC1CCCC(NC(=O)COC(=O)c2c[nH]c(=O)[nH]c2=O)C1C (stereo not drawn),,38%
CCC1(COC(NC(=O)c2cccnc2)(C(F)(F)F)C(F)(F)F)COC1,,25.6%
O=c1n(S(=O)(=O)c2cccc3cccnc23)c2ccccc2n1S(=O)(=O)c1cccc2cccnc12,active: 11.2 µM,
CC(C)c1ccc(-c2noc(C3CCCN(C(=O)c4ccc(F)cc4F)C3)n2)cc1 (stereo not drawn),,-93.7%
CC(=O)N1CCN(c2ccc(NCc3ccc(C)cc3)cc2)CC1,,inactive: -39.9%
CCNc1nc(N)nc(-c2cc(Cl)ccc2O)n1,active: 11.2 µM,
Cc1ccc(-c2cc(C(=O)OCC(=O)Nc3cc(C)on3)c3ccccc3n2)c(C)c1,,36.3%
Cc1nc2c(ccc3nc(NC(=O)C(c4ccccc4)c4ccccc4)sc32)s1,,inactive: -63.5%
O=C(CNC(=O)OCc1ccccc1)NC1CCCCCCC1,,-36.4%
Cc1nn(C)cc1CNC(=O)c1cnn2c(C(F)F)cc(C3CC3)nc12,,62.3%
NCCCSC1=NCCCN1,,24.1%
CC(C)(C)c1ccc(NC(=O)COC(=O)CCc2nc3ccccc3c(=O)[nH]2)cc1,,41.2%
COc1cc(COc2cc(N)c(Cl)cc2C(=O)CCC2CCN(CCNS(C)(=O)=O)CC2)cc(OC)c1,,-99.3%
O=C(OCC(=O)N1CCc2ccccc21)c1cccnc1,,39.6%
CN(Cc1ccccc1)c1ncnc2c1cnn2-c1ccccc1,active: 5.62 µM,
Cc1ccc(NC(=O)c2c(NC(=O)C(F)(F)F)sc3c2CCCCC3)cc1,,inactive: -43.5%
Cn1c(=O)c2c(ncn2CC(=O)N2CCN(c3cccc(Cl)c3)CC2)n(C)c1=O,,47.3%
COCc1cc(C)nc(SCc2nc3ccccc3c(=O)[nH]2)c1C#N,,-45.5%
CCOc1ccccc1NC(=O)c1cn(C2CCCC2)c(=O)c2c1c1ccccc1n2C,,33.1%
Cc1ccccc1Cn1nc(C)c(NC(=O)c2cc3n(n2)C(C(F)F)CC(C(F)F)N3)c1C (stereo not drawn),,26.3%
CCC(C)N(C(=O)c1csnn1)C(C(=O)NC(C)(C)C)c1ccccc1 (stereo not drawn),,18.1%

# 3 consecutive compounds already listed:
SMILES,Potency,"activity change, positive = activation"
Cc1ccc(C)n1-c1ccc(C(=O)Nc2ccccc2)cc1,active: 12.6 µM,
COC(=O)Nc1ncc(CN2C(=O)c3ccccc3C2=O)s1,,36.2%
COc1cc(OC)cc(C(=O)N=c2sc3ccccc3n2C)c1,active: 10 µM,

# The results go on.

SMILES,Potency,"activity change, positive = activation"
COc1cccc(NC(=O)c2ccccc2SC)c1,,33%
Clc1nc(-c2ccccn2)nc2scc(-c3ccccc3)c12,active: 5.62 µM,
CSc1nc(N)c(C#N)c(-c2ccccc2Cl)c1C#N,,33%
C/C(N)=C(/C#N)C(=O)CSc1nnc(-c2ccccc2Br)o1,active: 2.82 µM,
CC1CCCC(C)N1C(=O)Nc1cccc(Cl)c1 (stereo not drawn),,44%
CCOC(=O)C(C)c1n[nH]c(=O)c2ccccc12 (stereo not drawn),,39%
COC(=O)c1ccc(NC(=O)c2cc3sccc3n2C)cc1,,-33.7%
CC(C)C(=O)N1CCN(c2ccc(NC(=O)c3ccc(Br)o3)cc2)CC1,,-42.5%
CC(=O)c1ccc(N2Cc3ccccc3C2=NC(=O)c2cccs2)cc1,active: 14.1 µM,
COc1ccc(NC(=S)N(CCCN2CCOCC2)C(C)c2cc3cccc(OC)c3o2)cc1 (stereo not drawn),,-13.7%
CS(=O)(=O)c1cc([N+](=O)[O-])c(Sc2nc3ccccc3[nH]2)c([N+](=O)[O-])c1,,-62.8%
CCOC(=O)Cc1c(C)nc2c(-c3ccc(Cl)cc3)c[nH]n2c1=O,,-30.4%
CN(C)S(=O)(=O)c1ccccc1C#N,,47.6%
Cc1cccc(CN2CCN(CC(=O)NCCCN3CCN(c4ccc(F)cc4)CC3)C2=O)c1,,-43.6%
C#C[C@]1(O)CCC2C3CCC4=C(CCC(=O)C4)C3CC[C@@]21C (stereo partly drawn),,inactive: 4.77%
Cc1c(OCC(=O)OC(C)C)ccc2c3c(c(=O)oc12)CCC3,,40.6%
Cc1cnc(NC(=O)Nc2ccc(Cl)cc2)s1,,inactive: 173%
O=C(CSc1ncnc2ccccc12)c1cccs1,,144%
O=C(/C=C/c1ccc(Cl)c(Cl)c1)N1CCc2ccccc21,active: 7.08 µM,
Cc1ccccc1Cn1c(CN2CCc3ccccc3C2)nc2c1c(=O)n(C)c(=O)n2C,,inactive: -39.2%
COc1cccc(/C=C(/C#N)c2ccc(F)cc2)c1OCc1cccc(C(=O)O)c1,,46%
O=[N+]([O-])c1nn(-c2ccc(Cl)cc2)n(O)c1=NCc1cccnc1,,-78.3%

# From PubChem BioAssay AID1458 (National Center for Advancing Translational Sciences (NCATS), 2008)
